Numbering of substitutions follows the chain as printed. The comparison behind a weaker result is the experiment's own reference, which may not be listed here. Protein sequences can lack the tags named with them.
How the values were obtained:
Assay in all cases: EMSA
[1] = target: T1, Dcc1 R380A (Saccharomyces cerevisiae) (UniProt P25559); conditions: 6% native gel in 0.5x TBE, 4 C, DNA 1 uM unless stated, binding buffer, salt and pH not stated, recombinant protein
T1 sequence (looked up): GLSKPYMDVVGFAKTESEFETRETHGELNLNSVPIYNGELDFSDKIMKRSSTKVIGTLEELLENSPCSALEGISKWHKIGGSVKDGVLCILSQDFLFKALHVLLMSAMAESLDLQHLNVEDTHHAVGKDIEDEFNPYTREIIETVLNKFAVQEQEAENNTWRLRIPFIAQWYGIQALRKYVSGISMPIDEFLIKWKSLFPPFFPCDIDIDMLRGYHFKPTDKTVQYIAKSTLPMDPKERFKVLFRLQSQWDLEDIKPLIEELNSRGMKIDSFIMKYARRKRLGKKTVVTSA

[2] = target: T2, Dcc1 R367A (Saccharomyces cerevisiae) (UniProt P25559); conditions: 6% native gel in 0.5x TBE, 4 C, DNA 1 uM unless stated, binding buffer, salt and pH not stated, recombinant protein
T2 sequence (looked up): T1 sequence (looked up) with R278A, A291R

[3] = target: T3, Dcc1 K364A (Saccharomyces cerevisiae) (UniProt P25559); conditions: weak reduction, 6% native gel in 0.5x TBE, 4 C, DNA 1 uM unless stated, binding buffer, salt and pH not stated, recombinant protein
T3 sequence (looked up): T1 sequence (looked up) with K275A, A291R

[4] = target: T4, Dcc1 dWH3 del319-380 (Saccharomyces cerevisiae) (UniProt P25559); conditions: no shift at 1 uM DNA (Fig 4B), slight shift at reduced DNA, overexposed gel, 6% native gel in 0.5x TBE, 4 C, DNA 1 uM unless stated, binding buffer, salt and pH not stated, recombinant protein, residues 90-318, label: 5' 6-FAM, single-stranded DNA
T4 sequence (looked up): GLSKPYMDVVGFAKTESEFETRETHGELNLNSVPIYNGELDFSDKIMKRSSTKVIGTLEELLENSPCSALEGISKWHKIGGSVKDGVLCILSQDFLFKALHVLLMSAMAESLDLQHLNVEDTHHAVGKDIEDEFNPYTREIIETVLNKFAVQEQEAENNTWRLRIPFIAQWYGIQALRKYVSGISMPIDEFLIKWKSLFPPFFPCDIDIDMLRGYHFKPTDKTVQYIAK

[5] = residues 90-380, label: 5' 6-FAM on sense strand
[6] = residues 90-380, label: 5' 6-FAM, single-stranded DNA

Measured: binding result

TCTCCACAGGAAACGGAGGGGT (double strand) [22-mer dsDNA]
binds more weakly: [1]; [5] | [2]; [5] | [3]; [5]

TTTTTTTTTTTTTTTTTTTTTTTTT [25-mer oligo d(T)]
binds more weakly: [1]; [6] | [2]; [6] | [4] | [3]; [6]

Reference: publication PMC5376975, “Structural studies of RFCC tf18 reveal a novel chromatin recruitment role for Dcc1”
